From paper doi:10.1101/2021.02.10.429309
These are yes or no findings as the source states them, for the method shown. Binding seen in cells or lysates may run through a third protein. Here binding means that the protein was enriched with, or labelled near, the bait; the list need not be complete.

Target: 3×HA-tagged KRAS (KRAS-4B) (UniProt P01116)
Assay: affinity purification with mass spectrometry

Ras-related protein RAB6A (from UniProt P20340 1-208)
binding: binds

Ras-related protein RAB11A (from UniProt P62491 1-216)
binding: binds

Ras-related protein RAB7A (from UniProt P51149 1-207)
binding: binds
